# Where “and” joins values, the source holds several entries; their conditions need not be identical. Identical values can stand only once. The list shows a part of the results. Further columns of the screen follow, without active or inactive calls. The list favours compounds with an active or inconclusive main result. Words in brackets tell the shape of the fitted curve; partial curves, single points and poor fits give uncertain potencies.
# Test: qHTS Assay for Lipid Storage Modulators in Drosophila S3 Cells;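 on cell number change: cells counted by Cell Tracker Red CMTPX staining in the red channel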
# Details: BODIPY lipid droplet fluorescence, 18-24 h; for cell number change: measured here: cell count max response, cells fed with added oleic acid
# Outline: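 Drosophila S3 cells got compounds at several concentrations plus oleic acid (400 uM solution). Laser-scanning cytometry with 488 nm excitation read lipid droplets at 500-530 nm and cells at 575-640 nm. Percent activity was relative to 20 uM Triacsin C.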
# [1] = measured here: cell number channel AC50, cells fed with added oleic acid
# [2] = measured here: lipid fluorescence (Fed channel) AC50, cells fed with added oleic acid
Structure (SMILES),cell number change,AC50 [1],AC50 [2]
Cc1cccc(N=C2NN=C(c3c[nH]c4ccccc34)CS2)c1,-45.6%,"29.1 µM [falling, single point]","29.1 µM [falling, single point]"
COc1ccc(CCNC(=O)COC(=O)c2ccc(C)s2)cc1,6.96%,–,–
CCOC(=O)c1c(C)[nH]c(C(=O)/C(C#N)=C/c2ccc(OC)c(OC)c2)c1C,51.7%,"9.2 µM [rising, partial curve]","1.84 µM [falling, partial curve, poor fit]"
O=C(COC(=O)c1ccccc1O)Nc1cccc2ccccc12,16.8%,–,"1.16 µM [rising, full curve]"
COC(=O)c1c(NC(=O)c2ccoc2C)sc2c1CCC2,–,"2.06 µM [rising, partial curve]","1.3 µM [rising, partial curve]"
CCn1c2ccc(F)cc2c2nnc(NN)nc21,22.2%,–,"0.116 µM [rising, full curve, poor fit]"
CCc1ccc(C(CC(=O)c2ccc(Cl)cc2)C(=O)O)cc1 (stereo unspecified),–,–,"6.51 µM [rising, single point]"
CN(C(=O)c1cc(Cl)c2c(c1)OCCO2)c1c(N)n(Cc2ccccc2)c(=O)[nH]c1=O,-6.43%,"0.731 µM [falling, single point]",–
BrC(=C\c1ccccc1)/C=N/N1CCN(c2ccccc2)CC1,30.6%,–,"0.00461 µM [rising, partial curve, poor fit]"
CCN1CC2=C(OC(N)=C(C#N)C2c2cccs2)/C(=C/c2cccs2)C1 (stereo unspecified),258%,"13 µM [rising, partial curve]","29.1 µM [rising, single point]"
Cc1cc(C(=O)OCC(=O)Nc2ccccc2C#N)c(C)o1,–,–,"29.1 µM [falling, single point]"
Cc1nnc(SCCc2ccccc2)[nH]c1=O,–,–,"0.517 µM [falling, single point]"
CN(C)c1cccc(C(=O)OCC(=O)Nc2ccccc2-c2ccccc2)c1,-18.7%,–,"18.4 µM [falling, single point]"
O=C(CSc1nc2ccccc2[nH]1)c1cccs1,0.391%,–,"3.66 µM [rising, single point]"
O=[N+]([O-])C(/C=C(\Cl)[N+](=O)[O-])=C(N1CCCCC1)N1CCCCC1,16.1%,–,"0.651 µM [rising, full curve, poor fit]"
O=C(Cn1nnc(-c2ccc3c(c2)OCO3)n1)NCc1ccco1,–,–,"0.259 µM [falling, partial curve, poor fit]"
N#Cc1c(-c2ccco2)ccn(Cc2ccc(F)cc2)c1=O,25.3%,–,"29.1 µM [rising, single point]"
O=C(Cc1csc(NC(=O)c2ccccc2)n1)NO,33.8%,"1.16 µM [rising, full curve]","5.8 µM [rising, partial curve]"
C1CCC(C(CC2CCCCN2)C2CCCCC2)CC1 (stereo unspecified),-37.2% and -86.8%,"29.1 µM [falling, single point] and 20.6 µM [falling, partial curve]","20.6 µM [falling, partial curve]"
C/C(=N\NC(=O)CN1CCCCC1)c1ccccc1O,-15.3%,–,–

Structure (SMILES),cell number change,AC50 [1],AC50 [2]
FC(F)(F)Sc1ccc(NC(=S)NCc2ccccc2)cc1,-55.2%,"29.1 µM [falling, single point]",–
NC(=O)c1ccc(NC(=O)c2cc(S(=O)(=O)N3CCCCC3)ccc2N2CCOCC2)cc1,44.5%,"14.6 µM [rising, partial curve, poor fit]","29.1 µM [rising, single point]"
CCCSc1nnc2c(n1)OC(c1cccn1C)N(C(C)=O)c1ccccc1-2 (stereo unspecified),-0.451%,"0.103 µM [falling, full curve, poor fit]",–
Cc1ccc(-n2nc(C(=O)NCc3ccc(C)o3)c3c4ccccc4n(C)c3c2=O)cc1,17.5%,–,"29.1 µM [rising, partial curve]"
COc1ccc(-c2cc(C(=O)N3CCN(c4cccc(C)c4C)CC3)c3ccccc3n2)cc1OC,14.5%,–,"3.66 µM [rising, single point]"
CCc1sc(C(=O)N2CCN(c3ncccn3)CC2)cc1Br,–,–,"0.291 µM [rising, full curve, poor fit]"
Cc1c(C(=O)N(Cc2ccco2)Cc2cccs2)oc2ccccc12,-1.47%,–,–
CC(OC(=O)C1CCCC1)C(=O)Nc1ccc(C(N)=O)cc1 (stereo unspecified),21.4%,–,"2.59 µM [falling, partial curve]"
Cn1nc(C(=O)NCCc2ccc(S(N)(=O)=O)cc2)c2ccccc2c1=O,-39.9%,"13 µM [falling, single point]","16.4 µM [falling, single point]"
N#Cc1nc(-c2ccccc2)oc1N1CCCCC1,35.1%,"1.46 µM [rising, full curve]","0.461 µM [rising, partial curve, poor fit]"
CCCCCSc1nnc(-c2ccccc2N)c(=O)[nH]1,17%,–,"0.0731 µM [falling, full curve, poor fit]"
COc1ccc2c(c1)OCC1=C2CCC2(C)C(=O)CC=C12 (stereo unspecified),4.92%,–,"29.1 µM [falling, partial curve]"
O=C(NCCCN1CCCC1)c1ccc2c(c1)N(Cc1ccc(F)cc1)C(=O)c1ccccc1S2=O (stereo unspecified),24.8%,"2.59 µM [rising, full curve, poor fit]",–
O=C(Nc1ccc(S(=O)(=O)Nc2nccc(C3Cc4ccccc4C(=O)O3)n2)cc1)c1ccccc1 (stereo unspecified),1.87%,–,–
Cc1ccc(NC(=O)CNC(=O)c2ccc(C)s2)nc1,34.1%,"29.1 µM [rising, single point]","2.06 µM [rising, partial curve]"
COC(=O)c1ccc(C(=O)OC)c(NC(=O)CSc2cccc[n+]2[O-])c1,-42%,"8.2 µM [falling, partial curve]",–
COC(=O)Cc1ccc(NC(=S)NC(C)(C)C)cc1,-39.2%,–,–
CC(=O)c1cccc(NC(=O)NCc2ccccn2)c1,–,"6.51 µM [rising, partial curve, poor fit]","6.51 µM [rising, partial curve, poor fit]"
CC(=O)Nc1ccc(S(=O)(=O)NCc2nnnn2-c2ccc(Cl)cc2)cc1,4.17%,–,"6.51 µM [falling, single point]"
COc1ccccc1C(=O)NCCC(=O)NCc1ccncc1,-1.68%,–,"0.00517 µM [rising, full curve, poor fit]"

Structure (SMILES),cell number change,AC50 [1],AC50 [2]
CCOC(=O)CN(Cc1ccccc1)S(=O)(=O)c1ccc(NC(C)=O)cc1,-7.15%,–,"1.64 µM [rising, partial curve, poor fit]"
O=C(O)C1CCCCN1C(=O)c1ccc(S(=O)(=O)N2CCCC2)cc1 (stereo unspecified),-36.1%,"2.06 µM [falling, full curve]",–
Clc1ccc(OCCCN2CCCCC2)c(Br)c1,-1.23%,–,"6.51 µM [falling, full curve]"
O=C(Oc1cccc(-n2cnnn2)c1)c1ccccc1,-35.6%,"23.1 µM [falling, partial curve, poor fit]",–
COc1ccc(Oc2ccc(C(F)(F)F)cc2NC(=O)c2ccc(C)cc2)cc1,-4.89%,–,"0.00517 µM [rising, full curve, poor fit]"
Cc1cc(=O)c2ccccc2n1Cc1ccccc1,2.55%,–,"4.61 µM [rising, single point]"
COc1cccc(C(=O)OCC(=O)Nc2ccc(N3CCOCC3)cc2)c1,-26.4%,–,"0.13 µM [falling, partial curve, poor fit]"
Cn1nc(C(F)(F)F)c(C#N)c1N1CCN(c2ccccc2F)CC1,-2.68%,–,"14.6 µM [rising, partial curve]"
C#CCOC(=O)c1ccccc1C(=O)N(CC)CC,-21.4%,–,"4.61 µM [falling, full curve, poor fit]"
COC(=O)Cn1cnc2c(cnn2-c2ccc(C)cc2)c1=O,14.1%,–,"0.259 µM [rising, full curve, poor fit]"
CC(=O)NCC1CCN(C(=O)C2CCC(=O)N(CCc3cccc(F)c3)C2)CC1 (stereo unspecified),9.04%,–,"0.00411 µM [rising, full curve, poor fit]"
CC1CCCCN1C(=O)Cn1cc(/C=C2/C(=O)Nc3ccccc32)c2ccccc21 (stereo unspecified),-33.9%,"29.1 µM [falling, single point]","29.1 µM [falling, single point]"
CN(C)C1=NCCN1CCCC1CCCC1,23.4%,–,"6.51 µM [rising, single point]"
COc1ccccc1N1CCN(C(=O)C(F)F)CC1,17%,–,"0.82 µM [rising, single point]"
COc1ccc(S(=O)(=O)N2CCOCC2)cc1NC(=O)CSc1cc(C)ccc1C,-11.3%,"0.082 µM [falling, full curve, poor fit]","0.146 µM [falling, full curve, poor fit]"
COc1ccc(N2CC(C(=O)Nc3nc4ccc(OC)cc4s3)CC2=O)cc1 (stereo unspecified),-33.3%,–,–
C/C(=C\c1ccccc1)CN1CCN(c2ccccc2)CC1,-27.9%,–,"32.6 µM [falling, single point]"
CCCOC(=O)c1ccc(NC(=O)CSC2=Nc3ccccc3C3CC=NN23)cc1 (stereo unspecified),–,"0.0731 µM [rising, full curve, poor fit]","0.103 µM [rising, full curve, poor fit]"

# From PubChem BioAssay AID2685 (National Center for Advancing Translational Sciences (NCATS), 2010)
